This assay concerns the target FLAG-SIRT1 (UniProt Q96EB6). Briefly: co-IP; anti-FLAG agarose IP from lysates of HEK293T cells transfected with the FLAG-tagged bait for 24 h, treated with DMSO or DOX (5 µM) for 8 h; IP lysis buffer 10 mM Tris-HCl pH 7.4, 100 mM NaCl, 2.5 mM MgCl2, 0.5% Triton X-100; overnight at 4 °C; western blot. On the technique in general: A western blot detects proteins with antibodies after separation by electrophoresis.

Protein sequences, listed by entry. Tags and fused reporters are not part of them.
UniProt Q96EB6: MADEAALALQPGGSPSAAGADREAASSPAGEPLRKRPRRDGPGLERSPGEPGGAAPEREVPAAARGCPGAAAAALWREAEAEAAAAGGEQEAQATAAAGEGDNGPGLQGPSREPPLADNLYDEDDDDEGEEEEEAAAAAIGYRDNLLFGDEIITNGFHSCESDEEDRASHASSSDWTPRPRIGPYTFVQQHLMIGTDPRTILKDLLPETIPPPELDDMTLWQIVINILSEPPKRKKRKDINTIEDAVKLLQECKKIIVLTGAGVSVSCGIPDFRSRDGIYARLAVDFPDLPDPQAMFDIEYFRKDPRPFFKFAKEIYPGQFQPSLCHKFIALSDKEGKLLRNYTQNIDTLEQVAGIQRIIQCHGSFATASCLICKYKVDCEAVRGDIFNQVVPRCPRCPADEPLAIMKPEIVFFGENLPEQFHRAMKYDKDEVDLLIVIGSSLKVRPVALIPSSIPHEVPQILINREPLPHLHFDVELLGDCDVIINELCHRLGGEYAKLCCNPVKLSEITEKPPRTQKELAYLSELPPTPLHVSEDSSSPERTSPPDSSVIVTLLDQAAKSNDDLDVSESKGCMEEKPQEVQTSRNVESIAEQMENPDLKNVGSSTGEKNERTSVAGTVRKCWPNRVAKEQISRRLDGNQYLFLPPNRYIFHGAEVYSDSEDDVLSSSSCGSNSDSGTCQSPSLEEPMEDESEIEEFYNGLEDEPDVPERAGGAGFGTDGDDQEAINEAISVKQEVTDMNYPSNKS
UniProt Q13263: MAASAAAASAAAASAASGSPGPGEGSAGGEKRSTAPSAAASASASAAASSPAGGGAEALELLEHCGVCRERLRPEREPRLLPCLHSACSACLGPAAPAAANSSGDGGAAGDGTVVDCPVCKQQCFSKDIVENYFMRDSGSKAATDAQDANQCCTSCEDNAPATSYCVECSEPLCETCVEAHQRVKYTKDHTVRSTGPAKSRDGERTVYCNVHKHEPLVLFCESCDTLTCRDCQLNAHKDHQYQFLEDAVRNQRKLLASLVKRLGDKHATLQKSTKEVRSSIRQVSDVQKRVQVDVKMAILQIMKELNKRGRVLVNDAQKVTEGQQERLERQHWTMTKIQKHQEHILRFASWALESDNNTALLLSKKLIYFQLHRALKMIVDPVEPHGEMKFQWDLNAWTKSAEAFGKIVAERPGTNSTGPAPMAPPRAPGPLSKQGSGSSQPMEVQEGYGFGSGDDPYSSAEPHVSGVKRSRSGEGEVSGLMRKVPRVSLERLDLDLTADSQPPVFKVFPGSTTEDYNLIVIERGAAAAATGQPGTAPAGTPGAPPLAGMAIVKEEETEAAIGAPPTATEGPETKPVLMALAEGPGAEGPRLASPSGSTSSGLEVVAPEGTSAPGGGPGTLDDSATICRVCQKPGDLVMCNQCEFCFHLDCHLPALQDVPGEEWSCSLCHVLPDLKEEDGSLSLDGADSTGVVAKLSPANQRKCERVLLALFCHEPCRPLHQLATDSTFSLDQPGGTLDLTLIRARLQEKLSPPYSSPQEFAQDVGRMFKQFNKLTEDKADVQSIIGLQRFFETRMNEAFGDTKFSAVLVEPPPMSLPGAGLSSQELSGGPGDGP

No constants are given. Whether binding was seen depends on the method and setting. In cells and extracts the contact can be indirect. Some binding calls cover weakened binding; strength is not graded here.

As for “TRIM28 (tripartite motif-containing protein 28) (from UniProt Q13263 1-835)”, the binding entry is “binds”.

(Values after paper PMC9066097.)
